Experimental data: PubChem BioAssay AID602196 (INSERM, 2012)
Purpose: 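Modifiers of cisplatin sensitivity in A549 cells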. System: human A549 lung cancer cells. Reagent: siRNA pair against human genes. Time to read-out: 48 h transfection before cisplatin; time from cisplatin to read-out not stated. Conditions: cisplatin at a dose killing half of control-siRNA cells; exact dose and duration not given. Detection: 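Shift in cisplatin death relative to control siRNA, from -50 (all cells die) to +50 (no cells die); siRNAs harmful on their own scored 0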. Scale: two-siRNA summed score (-2 to +2): higher = both siRNAs protect from cisplatin killing; -2 means both sensitise; mean protection from cisplatin (shift in death) and protection from cisplatin (shift in death), siRNA C: higher = protection from cisplatin killing. Active means: 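siRNAs harmful alone (LDH or WST-1) get 0; others get +1 for less and -1 for more cisplatin killing; genes are active when the two siRNAs give the same sign, summing to ±2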. Calls: active = both siRNAs shift cisplatin killing the same way; inactive = no consistent shift, or siRNA harmful alone.
This is one part, drawn at random, of about 23,000 deposited reagents. 455 of them (2%) were called active. 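Active includes both protection and sensitisation; some change values fall well beyond the stated -50 to +50 range.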 Entries without a mark were called inactive. The numbers tell different reagents against one gene apart. Not all columns of the deposit are shown. No sequences are given here. The record does not give: the amount of reagent.

The first 4 records as a preview:
| target | reagent no. | two-siRNA summed score (-2 to +2) | mean protection from cisplatin (shift in death) (%) | protection from cisplatin (shift in death), siRNA C (%) |
| --- | --- | --- | --- | --- |
| PLG (plasminogen) | 1 | -1 | -12.5 | -28.5 |
| FANCG (FA complementation group G) | 1 | 1 | 17.6 | 8 |
| CD5 (CD5 molecule) | 1 | 0 | 4.9 | 15.9 |
| PAWR (pro-apoptotic WT1 regulator) | 1 | 0 | 10.2 | 14 |

Results, from the start:
| target | reagent no. | two-siRNA summed score (-2 to +2) | mean protection from cisplatin (shift in death) (%) | protection from cisplatin (shift in death), siRNA C (%) |
| --- | --- | --- | --- | --- |
| PLG (plasminogen) | 1 | -1 | -12.5 | -28.5 |
| FANCG (FA complementation group G) | 1 | 1 | 17.6 | 8 |
| CD5 (CD5 molecule) | 1 | 0 | 4.9 | 15.9 |
| PAWR (pro-apoptotic WT1 regulator) | 1 | 0 | 10.2 | 14 |
| ZNHIT1 (zinc finger HIT-type containing 1) | 1 | 1 | 16.6 | 20.4 |
| LOC400757 | 1 | 0 | 6.7 | 9.3 |
| LOC400481 | 1 | 0 | -8.8 | 2.1 |
| PHF12 (PHD finger protein 12) | 1 | -1 | -18.3 | -8.7 |
| GSTT4 (glutathione S-transferase theta 4) | 1 | 1 | 1.2 | -14.9 |
| MFSD6L (major facilitator superfamily domain containing 6 like) | 1 | 0 | 20.3 | 10 |
| PRB1 (proline rich protein BstNI subfamily 1) | 1 | 0 | -13.2 | -7.7 |
| LOC219854 | 1 | 1 | 11.9 | 7.7 |
| NPAS2 (neuronal PAS domain protein 2) | 1 | 0 | -15.6 | -30.5 |
| TMEM109 (transmembrane protein 109) | 1 | 0 | 5.8 | 3.9 |
| VAX1 (ventral anterior homeobox 1) | 1 | 0 | 4.3 | 6 |
| TPI1 (triosephosphate isomerase 1) | 1 | 0 | 17.7 | 17.7 |
| FNDC8 (fibronectin type III domain containing 8) | 1 | 0 | -2.7 | 4 |
| CCDC28B (coiled-coil domain containing 28B) | 1 | 0 | 3.7 | -2.9 |
| PCDHGB2 (protocadherin gamma subfamily B, 2) | 1 | 0 | -3.1 | -11.8 |
| BMP1 (bone morphogenetic protein 1) | 1 | -1 | -9.3 | -4.8 |
| OR3A2 (olfactory receptor family 3 subfamily A member 2) | 1 | 0 | 2.3 | 4.1 |
| MAPK9 (mitogen-activated protein kinase 9) | 1 | 0 | 1.6 | -1 |
| ZNF638 (zinc finger protein 638) | 1 | 0 | 10.4 | 10.1 |
| ZNF638 (zinc finger protein 638) | 2 | 0 | 14 | 22.1 |
| R3HDM4 (R3H domain containing 4) | 1 | 1 | 14.3 | 24.3 |
| PITPNB (phosphatidylinositol transfer protein beta) | 1 | 0 | 4 | 4.5 |
| RBM4 (RNA binding motif protein 4) | 1 | 0 | 8.6 | 10.9 |
| LINC03034 (long independently transcribed non-coding RNA 3034) | 1 | 0 | 6.6 | 3 |
| ZNF134 (zinc finger protein 134) | 1 | 1 | 9.1 | 7.9 |
| LPO (lactoperoxidase) | 1 | 0 | -0.5 | -0.1 |
| C5AR1 (complement C5a receptor 1) | 1 | -1 | -12.1 | 4.5 |
| GLI2 (GLI family zinc finger 2) | 1 | 0 | -8.2 | -6.7 |
| LRRC34 (leucine rich repeat containing 34) | 1 | 0 | -0.4 | 0.8 |
| RNASEH2B (ribonuclease H2 subunit B) | 1 | 0 | -4 | -3.7 |
| PTMAP11 (prothymosin alpha pseudogene 11) | 1 | 0 | 9.9 | 14.2 |
| LOC390110 | 1 | -1 | 4.1 | 18.7 |
| LOC399806 | 1 | 0 | 10.2 | 18 |
| HFE (homeostatic iron regulator) | 1 | 0 | -3.4 | -6.3 |
| HPS1 (HPS1 biogenesis of lysosomal organelles complex 3 subunit 1) | 1 | 0 | 1.3 | 8.4 |
| LOC440394 | 1 | 0 | 12.4 | 18.4 |
| MGAT5 | 1 | 0 | 1.7 | -13.1 |
| ADAM30 (ADAM metallopeptidase domain 30) | 1 | 0 | 3.5 | -11 |
| FLNA (filamin A) | 1 | 0 | -3.6 | -11.2 |
| LOC402397 | 1 | 0 | -0.6 | 6.7 |
| BICDL1 (BICD family like cargo adaptor 1) | 1 | 0 | 1.7 | 9.6 |
| CHCHD7 (coiled-coil-helix-coiled-coil-helix domain containing 7) | 1 | -1 | -7.9 | -15.9 |
| INSL4 (insulin like 4) | 1 | -1 | -3.8 | 9.7 |
| ARRDC1 (arrestin domain containing 1) | 1 | 0 | 1.6 | 15.9 |
| LOC441441 | 1 | 1 | 12.9 | 10.3 |
| FBXO47 (F-box protein 47) | 1 | 0 | 6.9 | 3.5 |
| LOC402522 | 1 | -1 | -6.5 | -16.7 |
| SLC66A3 | 1 | 0 | 8.7 | 18.7 |
| KIAA0319L (KIAA0319 like) | 1 | -1 | -9.6 | -18.2 |
| PSMD6 (proteasome 26S subunit, non-ATPase 6) | 1 | 1 | 18.9 | 21.3 |
| LOC441154 | 1 | 1 | 6.7 | 3 |
| LOC390003 | 1 | 0 | 6.1 | 19 |
| SUSD1 (sushi domain containing 1) | 1 | 0 | 6.4 | 1.3 |
